“And” between values parts separate entries of the source, which are not always exact repeats. Equal entries are not always repeated. Hit rate of the full screen: of about 410,000 compounds, about 18,000 (4.4%) were called active. This list was built around the results that the source calls inconclusive (neither active nor inactive); the mix of calls is not that of the screen. Rule as the data show it: active = activity change below about -60%; inconclusive = no clear call, values can overlap the other calls; inactive = above about -39%.
test: qHTS Assay for inhibitors of the human cytomegalovirus (HCMV); conditions: HFF cells, HCMV-luciferase reporter, 72 h; at 57.5 µM; active compounds read low
Outline: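 Steps: HFFs plated, 16 h 37C; compounds added; HCMV-luciferase added to MOI 1 PFU/cell; 72 h 37C; OneGlo reagent, 5 min room temperature; luminescence read, normalized to controls.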
% is scaled to controls: 0 for no effect and ±100 for the full control effect.

| Compound | activity change, negative = inhibition |
| --- | --- |
| CCOC(=O)C1=C(CS(=O)(=O)c2ccc(C)cc2)NC(=O)NC1c1ccc(C(C)C)cc1 (centres undefined) | inactive: -38.7% |
| O=C(O)/C=C/C(=O)Nc1ccc(NC(=O)c2ccccc2)c(Cl)c1 | inconclusive: -40% |
| COc1ccc(NC(=O)CCS(=O)(=O)c2cccc3nonc23)cc1Cl | inconclusive: -51.1% |
| O=C(O)C1=C[C@@H](c2coc3ccccc3c2=O)C[C@@H](OCCCCO)O1 | inactive: -18.1% |
| Cc1noc(C)c1S(=O)(=O)Nc1cccc(C(F)(F)F)c1 | inactive: -6.66% |
| OCC1OC(Oc2c[nH]c3ccccc23)C(O)C(O)C1O (centres undefined) | active: -97.6% |
| C/C(CC(=O)Nc1ccc(N(C)C)cc1)=N\NC(=O)c1ccc(C(C)(C)C)cc1 | inactive: 10.6% |
| O=C(NCc1ccccc1)c1cncc(Br)c1 | inconclusive: -51.2% |
| Cc1ccc2c(CN3CCCCC3)cc(=O)oc2c1 | active: -77.3% |
| CCn1c(N2CCN(S(=O)(=O)c3ccc(F)cc3)CC2)nc2ccccc21 | inconclusive: -53.7% |
| Cc1ccc(O)c(Cc2cc(C)cc(Cc3cc(C)ccc3O)c2O)c1 | inconclusive: -41.9% |
| O=C(c1c[nH]c(C(=O)C(Cl)(Cl)Cl)c1)c1c(F)cccc1F | active: -79.5% |
| O=c1c2ccccc2c(C=Nc2ccc(Cl)cn2)c(O)n1-c1cc(Cl)ccc1N1CCOCC1 | inconclusive: -46.9% |
| Cc1cccc(N2CCN(c3cc(C)nc4c(-c5ccc(Cl)cc5)c(C)nn34)CC2C)c1 (centres undefined) | inactive: -21.2% |
| CC1CCC(NC(=O)c2nc(Cn3ccc([N+](=O)[O-])n3)no2)CC1 (centres undefined) | inconclusive: -56.1% |
| COc1cc(/C=C/C(=O)c2ccc([N+](=O)[O-])o2)ccc1O | active: -77% |
| COc1cccc(-c2nn(C)c3sc(C(=O)NCCc4ccc(Cl)cc4)cc23)c1 | inconclusive: -42.8% |
| CCOC(=O)c1ccc(Oc2ccc(C(F)(F)F)cn2)cc1 | inactive: -14% |
| O=C(c1cccs1)N1N=C(c2ccccc2)CC1c1ccccc1O (centres undefined) | active: -60.5% |
| COC(=O)c1cn(C(=O)c2ccc(C)c(C)c2)c2ccccc12 | inconclusive: -51.2% |
| CCn1c(C)nc2cc(C(=O)N/N=C/c3ccc(OC)c(O)c3)ccc21 | inconclusive: -51.1% |
| O=C(c1ccccc1)c1ccc(OCC(O)CNCc2ccc(F)cc2)cc1 (centres undefined) | inactive: 12.6% |
| Cc1ccc(NC(=O)CO/N=C(\N)c2nonc2N)cc1C | inconclusive: -57.3% |
| Cc1cc2nc(-c3ccc(SCC(=O)Nc4ccc5c(c4)OCCO5)nc3)[nH]c2cc1C | active: -68.3% |
| CCCNc1ncnc2onc(C)c12 | inactive: -16.8% and inactive: 33.5% |
| C[n+]1ccccc1/C=C1\Sc2ccccc2N1CCO | inconclusive: -55.5% |
| O=C(NCc1cccc(Cl)c1)c1cc(COc2ccc3ncccc3c2)on1 | inconclusive: -53.2% |

By substructure: the entries above with a nitro group on carbon (two)

| Compound | activity change, negative = inhibition |
| --- | --- |
| CC1CCC(NC(=O)c2nc(Cn3ccc([N+](=O)[O-])n3)no2)CC1 (centres undefined) | inconclusive: -56.1% |
| COc1cc(/C=C/C(=O)c2ccc([N+](=O)[O-])o2)ccc1O | active: -77% |

Looked up one by one from the list above:

| Compound | activity change, negative = inhibition |
| --- | --- |
| Cc1ccc2c(CN3CCCCC3)cc(=O)oc2c1 | active: -77.3% |
| C[n+]1ccccc1/C=C1\Sc2ccccc2N1CCO | inconclusive: -55.5% |

(list continues)

| Compound | activity change, negative = inhibition |
| --- | --- |
| COc1ccc(CN(C(=O)/C=C/C(=O)c2ccc(OC)cc2O)C(C(=O)NC2CCCCC2)c2ccncc2)cc1 (centres undefined) | active: -84.3% |
| CCN1CCN(c2ccc(S(=O)(=O)N3CCOCC3)cc2NC(=O)COc2ccc(F)cc2Cl)CC1 | inactive: 4.62% |
| COC(=O)c1c(SCC(=O)Nc2cc(C)cc(C)c2)[nH]c2ccccc2c1=O | inconclusive: -47.3% |
| O=C(Nc1nnc(CSCc2ccccc2F)s1)c1cccc([N+](=O)[O-])c1 | inconclusive: -55.2% |
| CN(C)c1cccc(NC(=O)c2cccc3c(-c4ccc(F)c(F)c4)coc23)c1 | inactive: 6.31% |
| CNc1ccccc1C(=O)OC(C)C(=O)Nc1ccc(Cl)cn1 (centres undefined) | active: -98.2% |
| CC(NC(=S)NCc1ccc(F)cc1)C12CC3CC(CC(C3)C1)C2 (centres undefined) | active: -84.6% |
| Cc1ccc(CNC(=O)COC(=O)c2ccc(S(=O)(=O)NCc3ccco3)cc2)cc1 | inconclusive: -41.2% |
| Nc1c(C(=O)Nc2cccc(Br)c2)sc2nc3c(cc12)N1CCC3CC1 | inconclusive: -51.1% |
| Cc1ccc(-c2nnc(SCC(=O)N/N=C/c3ccc(C)s3)n2-c2ccc(C)cc2)cc1 | active: -63.2% |
| Cc1ccc(N(CC(=O)NC(C)(C)C)C(=O)CNC(=O)c2cccs2)cc1 | inconclusive: -46.7% |
| O=C(NCc1ccncc1)c1cc(C(=O)C2CCCCC2)c[nH]1 | inconclusive: -51.4% |
| CC(=O)OC(C)(C)/C=C/C(=O)[C@](C)(O)C1[C@H](O)C[C@@]2(C)C3CC=C4C(C=C(O[C@@H]5O[C@H](CO)[C@@H](O)[C@H](O)[C@H]5O)C(=O)C4(C)C)[C@]3(C)C(=O)C[C@]12C (some centres undefined) | active: -86.4% |
| COc1ccc(CN2CCN(C(=O)C3CCC(CNS(=O)(=O)c4ccccc4)CC3)CC2)c(OC)c1OC (centres undefined) | active: -102% |
| CCN1CCN(C(=O)c2ccc3c(c2)N(Cc2ccc(C)cc2)CCS3)CC1 | active: -84.6% |
| CCOc1cc(CNCCc2ccccc2F)ccc1OC | inconclusive: -42.3% |
| CCOC(=O)c1cnc2ccc(C)cc2c1N(C)Cc1ccccc1 | active: -60.1% |
| CC(C)(C)c1nnc(NC(=S)Nc2ccccc2)s1 | inactive: 19.9% |
| CCOc1ccc(NC(=O)NNC(=O)C(C)Oc2ccccc2OC)cc1 (centres undefined) | inconclusive: -40.4% |
| CC(C)[C@H](NC(=O)c1ccccc1)C(=O)OCC(=O)c1ccccc1F | inconclusive: -52.2% |
| O=C(OCC1OC2C(Oc3nc(=O)ccn32)C1O)c1ccccc1 (centres undefined) | inactive: 6.66% |
| C=CCNC(=O)c1ccc(CN(c2ccc(OCC)cc2)S(=O)(=O)c2ccc(C)cc2)cc1 | inactive: -6.89% |
| COc1ccc(NC(=S)Nc2ccccc2Cl)cn1 | inconclusive: -49.8% |
| Cc1ccc(CN(C)C(=O)c2cc(S(=O)(=O)N3CCOCC3)ccc2F)o1 | inactive: 29.4% |
| Cc1cc(NC(=O)CCN2C(=O)C3C4C=CC(C4)C3C2=O)c2ccccc2n1 (centres undefined) | inconclusive: -52.7% |
| Cc1ccc2c(c1)N(CC(=O)N1CCN(c3nc4ccccc4s3)CC1)C(=O)C(C)O2 (centres undefined) | inconclusive: -41.5% |
| COc1ccc2c(c1)[nH]c1c(N3CCN(Cc4ccc5c(c4)OCO5)CC3)ncnc12 | inactive: -38.9% |

Reference: PubChem BioAssay AID1259415 (National Center for Advancing Translational Sciences (NCATS), 2018)
